This series is described as follows: general procedure: Fmoc solid-phase peptide synthesis; polystyrene-based resin (Applied Biosystems). The settings on record: whole synthesis, HPLC-MS/MS, peak integration.

Where a sequence shows no end group, the ends are not given. HELM strings list residues between dots; [ac] is acetyl, [am] amide, other brackets name non-standard units. Where no end group is shown, it is not given here.

With RYLGYLE, the “purity (crude or final not stated)” value was 73.4%.
Then AYFYPE, with 99.2%; and YPFPGPI, with 96.0%; and PEPTIDE1{Y.P.W.T}$$$$V2.0, with 91.7%.
For the substance YFYPEL, the “purity (crude or final not stated)” value is given as 100.0%.
Then YPFVE, with 95.0%.
Then YGFLP, with 100.0%; and YPVEPF, with 92.3%; and FYPEL, with 99.0%.
With YLGYLE the figure was 98.9%; with YPFPGPIP, 92.9%; with RYLGY, 88.0%.
As for YPFVEP, the “purity (crude or final not stated)” value worked out at 100.0%.
Consider YPFPGPIN, for which the “purity (crude or final not stated)” value amounted to 94.0%.
